# Values from PubChem BioAssay AID1259308 (NCATS, 2017)
# Purpose: 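Genes whose loss raises luciferase production in HEK293 cells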 (primary screen)
# System: human HEK293 embryonic kidney cells stably expressing firefly luciferase (HEK-CMV-Luc2-Hygro)
# Reagents: single siRNA against human genes, 0.8 pmol siRNA per well
# Timing: 72 h
# Measurement: 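Reporter luminescence and viable-cell signal on separate replicate plates, given as percent of non-targeting control and median/MAD z-scores, plus per-cell luciferase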
# Reading the numbers: total luciferase, z-score and total luciferase, % of control: higher = more reporter protein produced; luciferase per cell, z-score: higher = more reporter output per viable cell; viable cells, % of control: higher = more viable cells
# Call rule: 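An siRNA counts as active if its total luciferase robust z-score exceeds 3; genes with two or more such siRNAs out of three were retested with fresh siRNAs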
# Calls: active = raised luciferase; inactive = no rise
# The whole screen tested about 59,000 reagents; shown is a part drawn at random. About 1,510 of all reagents (2.6%) count as active. 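Calls use total luciferase alone and ignore viability, so some active siRNAs may act by altering cell number.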 Reagents against one gene are numbered here.
Target gene,reagent no.,"total luciferase, z-score","total luciferase, % of control","luciferase per cell, z-score","viable cells, % of control",Outcome
RPL23AP74,1,-0.787,66.2,-0.442,83.2,inactive
RPL23AP74,2,-0.169,78.5,-0.359,96.5,inactive
RPL23AP74,3,-0.399,74,-0.0771,84.3,inactive
NARF,1,0.587,93.6,0.0161,104,inactive
NARF,2,-0.154,78.8,-1,115,inactive
NARF,3,3.63,154,2.13,98.2,active
SLC22A7,1,-0.794,66.1,-1.07,97.8,inactive
SLC22A7,2,-1.17,58.6,-1.55,98.6,inactive
SLC22A7,3,-0.63,69.3,-0.727,93.8,inactive
SLC25A43,1,0.464,91.1,0.841,81.6,inactive
SLC25A43,2,3.04,142,3.13,69.7,active
SLC25A43,3,-0.667,68.6,-0.648,90.9,inactive
ALG5,1,0.0556,83,-0.385,103,inactive
ALG5,2,0.458,91,0.781,82.8,inactive
ALG5,3,-0.85,65,0.213,68.6,inactive
CYSLTR2,1,-0.394,74,-0.223,87.7,inactive
CYSLTR2,2,-0.847,65,-1.04,95.5,inactive
CYSLTR2,3,-1.46,52.9,-1.61,90.2,inactive
ARHGDIA,1,1.08,103,0.17,110,inactive
ARHGDIA,2,1.54,113,1.3,89.3,inactive
ARHGDIA,3,0.0378,82.6,0.0931,90.1,inactive

Already shown: an excerpt of the list.
Target gene,reagent no.,"total luciferase, z-score","total luciferase, % of control","luciferase per cell, z-score","viable cells, % of control",Outcome
SLC25A43,2,3.04,142,3.13,69.7,active
SLC25A43,3,-0.667,68.6,-0.648,90.9,inactive
ALG5,1,0.0556,83,-0.385,103,inactive
ALG5,2,0.458,91,0.781,82.8,inactive

Continued:
Target gene,reagent no.,"total luciferase, z-score","total luciferase, % of control","luciferase per cell, z-score","viable cells, % of control",Outcome
FAM209A,1,2.82,138,2.78,74.1,inactive
FAM209A,2,7.91,239,4.06,91.8,active
FAM209A,3,-1.28,56.4,-0.254,67.4,inactive
LRRN4CL,1,0.161,85.1,-0.597,111,inactive
LRRN4CL,2,2.34,128,2.67,71,inactive
LRRN4CL,3,-0.509,71.8,-0.228,85.2,inactive
ACTR1A,1,0.706,95.9,0.277,99.6,inactive
ACTR1A,2,-0.352,74.9,-0.729,101,inactive
ACTR1A,3,0.0182,82.2,-0.516,105,inactive
TMEM59L,1,0.17,85.3,-0.27,102,inactive
TMEM59L,2,-1.2,58,-0.475,73.4,inactive
TMEM59L,3,0.928,100,0.723,92.7,inactive
PLEKHA1,1,0.429,90.4,-0.205,107,inactive
PLEKHA1,2,-1.72,47.7,-2.68,108,inactive
PLEKHA1,3,-1.17,58.5,-0.534,75.3,inactive
LEUTX,1,-0.694,68.1,-1.04,100,inactive
LEUTX,2,-0.43,73.3,-0.292,88.5,inactive
LEUTX,3,1.49,112,0.88,98.8,inactive
RAET1G,1,0.66,95,1.09,79.6,inactive
RAET1G,2,-0.641,69.1,-0.707,93.1,inactive
RAET1G,3,1.21,106,0.45,105,inactive
WDR62,1,-1.9,44,-1.18,67.1,inactive
WDR62,2,-0.528,71.4,-0.475,90.4,inactive
WDR62,3,2.63,134,1.13,112,inactive
ZNF781,1,-0.34,75.1,0.371,76.1,inactive
ZNF781,2,0.391,89.7,0.264,93.5,inactive
ZNF781,3,1.9,120,0.779,109,inactive
PADI1,1,0.158,85,-0.531,109,inactive
PADI1,2,2.14,124,1.91,84.1,inactive
PADI1,3,-0.0909,80.1,-0.154,93.2,inactive
LGALS12,1,1.73,116,0.704,108,inactive
LGALS12,2,0.317,88.2,-0.173,103,inactive
LGALS12,3,-0.577,70.4,-0.703,94.7,inactive
OR4A15,1,1.5,112,1.27,89.3,inactive
OR4A15,2,-0.496,72,0.47,71.1,inactive
OR4A15,3,-0.647,69,-1.38,111,inactive
